Experimental data published in publication PMC10702813.
These are yes or no findings as the source states them, for the method shown. Some results given as binding are weak or reduced against the parent protein; the word gives no strength.

Molecular target: T1, tetherin (Bst2), endogenous (human (endogenous in HeLa)), Q10589
T1 chain: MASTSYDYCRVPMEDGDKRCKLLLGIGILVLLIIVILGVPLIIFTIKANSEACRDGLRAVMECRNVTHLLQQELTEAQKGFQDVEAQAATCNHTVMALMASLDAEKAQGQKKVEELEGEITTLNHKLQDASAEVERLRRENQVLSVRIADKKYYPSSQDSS
Assay: non-reducing SDS-PAGE and western blot; HeLa cell lysates (1% Triton‐x100, 1 mM EDTA, 150 mM NaCl, 20 mM Tris pH 7.5) mixed with Laemmli sample buffer and run in non‐reducing conditions; blotted with anti‐tetherin to see tetherin monomer and dimers
Conditions: remark: other sources report otherwise

B1: tetherin (Bst2), endogenous, Q10589 1-161 (protein)
chain: MASTSYDYCRVPMEDGDKRCKLLLGIGILVLLIIVILGVPLIIFTIKANSEACRDGLRAVMECRNVTHLLQQELTEAQKGFQDVEAQAATCNHTVMALMASLDAEKAQGQKKVEELEGEITTLNHKLQDASAEVERLRRENQVLSVRIADKKYYPSSQDSS
binding: binds
